# Test results from paper PMC7198521.
# The chains behind the UniProt entries cited, without tags or fusion partners.
# UniProt Q9UPS8: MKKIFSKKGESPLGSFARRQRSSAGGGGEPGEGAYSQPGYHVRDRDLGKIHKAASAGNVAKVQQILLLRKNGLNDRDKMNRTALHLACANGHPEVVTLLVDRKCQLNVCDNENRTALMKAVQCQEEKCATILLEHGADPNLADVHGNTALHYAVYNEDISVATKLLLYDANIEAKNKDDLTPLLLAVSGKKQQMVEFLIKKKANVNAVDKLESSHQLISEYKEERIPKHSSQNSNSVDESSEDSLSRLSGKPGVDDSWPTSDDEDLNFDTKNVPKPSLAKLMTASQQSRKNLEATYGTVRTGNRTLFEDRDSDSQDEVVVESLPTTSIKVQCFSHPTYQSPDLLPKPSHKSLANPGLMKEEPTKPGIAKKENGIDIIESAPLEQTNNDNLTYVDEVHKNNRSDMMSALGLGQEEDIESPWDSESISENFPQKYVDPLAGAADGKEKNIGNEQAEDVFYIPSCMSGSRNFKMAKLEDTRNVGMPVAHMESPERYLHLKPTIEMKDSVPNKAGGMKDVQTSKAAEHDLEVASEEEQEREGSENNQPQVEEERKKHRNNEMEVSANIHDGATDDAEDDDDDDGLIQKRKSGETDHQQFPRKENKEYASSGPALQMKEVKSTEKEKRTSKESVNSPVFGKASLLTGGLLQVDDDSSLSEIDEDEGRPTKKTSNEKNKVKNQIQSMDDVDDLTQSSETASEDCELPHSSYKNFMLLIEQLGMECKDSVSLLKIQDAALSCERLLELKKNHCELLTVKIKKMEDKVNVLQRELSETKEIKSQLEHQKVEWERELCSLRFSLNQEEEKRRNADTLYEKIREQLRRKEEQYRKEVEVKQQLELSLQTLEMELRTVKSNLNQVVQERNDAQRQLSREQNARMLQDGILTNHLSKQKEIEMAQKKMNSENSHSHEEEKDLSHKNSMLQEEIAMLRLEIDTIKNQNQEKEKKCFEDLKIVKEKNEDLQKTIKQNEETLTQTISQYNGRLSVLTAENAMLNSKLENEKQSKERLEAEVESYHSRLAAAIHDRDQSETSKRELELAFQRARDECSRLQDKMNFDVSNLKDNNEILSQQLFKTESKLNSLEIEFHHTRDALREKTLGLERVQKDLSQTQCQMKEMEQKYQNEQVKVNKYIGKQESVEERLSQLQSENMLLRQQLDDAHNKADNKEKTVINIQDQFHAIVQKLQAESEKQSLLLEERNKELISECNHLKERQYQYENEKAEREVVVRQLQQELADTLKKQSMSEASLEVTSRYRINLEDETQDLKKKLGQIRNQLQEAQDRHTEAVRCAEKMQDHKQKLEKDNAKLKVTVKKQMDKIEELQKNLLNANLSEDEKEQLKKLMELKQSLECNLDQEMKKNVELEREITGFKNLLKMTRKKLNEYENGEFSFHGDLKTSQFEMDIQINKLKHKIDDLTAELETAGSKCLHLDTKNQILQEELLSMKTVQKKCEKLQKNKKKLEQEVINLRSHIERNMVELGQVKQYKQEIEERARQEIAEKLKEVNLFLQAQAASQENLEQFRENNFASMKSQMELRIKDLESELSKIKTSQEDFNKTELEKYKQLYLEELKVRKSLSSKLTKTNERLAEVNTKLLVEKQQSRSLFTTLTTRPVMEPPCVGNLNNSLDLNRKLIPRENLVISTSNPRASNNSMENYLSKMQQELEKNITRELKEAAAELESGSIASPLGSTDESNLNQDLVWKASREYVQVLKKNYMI
# UniProt Q9BVV6: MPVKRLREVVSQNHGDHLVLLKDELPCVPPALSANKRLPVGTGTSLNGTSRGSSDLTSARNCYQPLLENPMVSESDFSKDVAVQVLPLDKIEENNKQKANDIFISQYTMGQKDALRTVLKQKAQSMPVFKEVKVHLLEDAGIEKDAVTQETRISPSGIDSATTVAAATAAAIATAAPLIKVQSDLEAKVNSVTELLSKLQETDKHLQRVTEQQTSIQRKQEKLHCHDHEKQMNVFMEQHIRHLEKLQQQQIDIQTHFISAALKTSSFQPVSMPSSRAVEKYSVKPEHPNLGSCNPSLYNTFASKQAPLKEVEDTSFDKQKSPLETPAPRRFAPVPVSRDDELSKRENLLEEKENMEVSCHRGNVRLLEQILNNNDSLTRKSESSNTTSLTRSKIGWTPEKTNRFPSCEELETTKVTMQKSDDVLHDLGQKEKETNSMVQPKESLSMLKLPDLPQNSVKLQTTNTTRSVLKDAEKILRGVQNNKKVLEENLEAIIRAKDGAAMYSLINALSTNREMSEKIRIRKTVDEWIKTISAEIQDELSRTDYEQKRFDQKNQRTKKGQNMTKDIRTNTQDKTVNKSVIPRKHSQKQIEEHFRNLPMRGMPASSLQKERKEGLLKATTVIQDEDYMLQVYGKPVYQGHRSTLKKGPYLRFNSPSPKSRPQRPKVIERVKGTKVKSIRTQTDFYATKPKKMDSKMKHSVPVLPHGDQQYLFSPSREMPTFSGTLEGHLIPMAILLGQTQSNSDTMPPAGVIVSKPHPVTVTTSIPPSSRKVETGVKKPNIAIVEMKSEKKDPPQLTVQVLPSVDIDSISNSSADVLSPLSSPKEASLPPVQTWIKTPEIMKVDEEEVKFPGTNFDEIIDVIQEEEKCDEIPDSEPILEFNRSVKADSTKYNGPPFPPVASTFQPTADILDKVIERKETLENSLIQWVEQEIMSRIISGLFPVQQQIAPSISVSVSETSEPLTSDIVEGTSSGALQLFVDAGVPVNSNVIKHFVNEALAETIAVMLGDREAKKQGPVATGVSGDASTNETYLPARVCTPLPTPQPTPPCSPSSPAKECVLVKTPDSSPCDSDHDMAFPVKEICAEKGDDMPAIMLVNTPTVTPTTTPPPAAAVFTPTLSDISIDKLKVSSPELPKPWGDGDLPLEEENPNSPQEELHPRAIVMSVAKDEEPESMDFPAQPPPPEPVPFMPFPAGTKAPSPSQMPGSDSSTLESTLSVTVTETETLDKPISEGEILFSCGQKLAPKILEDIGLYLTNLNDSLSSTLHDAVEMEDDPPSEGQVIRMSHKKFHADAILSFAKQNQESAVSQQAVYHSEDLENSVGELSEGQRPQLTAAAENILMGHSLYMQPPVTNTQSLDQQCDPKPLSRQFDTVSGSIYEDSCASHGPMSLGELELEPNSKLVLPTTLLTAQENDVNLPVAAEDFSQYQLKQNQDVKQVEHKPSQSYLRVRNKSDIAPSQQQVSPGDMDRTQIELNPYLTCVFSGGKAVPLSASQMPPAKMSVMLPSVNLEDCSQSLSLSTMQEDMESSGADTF
# No constants are given. Whether binding was seen depends on the method and setting. For part of these data: Binding seen in cells or lysates may run through a third protein. Some entries that bind do so weakly or less than the wild type. For part of these data: Tags and fused reporters may be left off the sequences shown.
# How the values were obtained:
# [1] = biological target: ANKRD26 (co-immunoprecipitation) (human (endogenous in HEK293T)) (UniProt Q9UPS8); experiment: co-IP; lysates of HEK293T cells in IP buffer (20 mM Hepes-KOH pH 7.2, 10 mM KCl, 1.5 mM MgCl2, 1 mM EDTA, 1 mM EGTA, 150 mM NaCl, 0.5% NP-40); called endogenous in the results
# [2] = biological target: T1, FBF1 (co-immunoprecipitation) (human (endogenous in HEK293T)) (UniProt Q8TES7); experiment: as above
# T1 sequence: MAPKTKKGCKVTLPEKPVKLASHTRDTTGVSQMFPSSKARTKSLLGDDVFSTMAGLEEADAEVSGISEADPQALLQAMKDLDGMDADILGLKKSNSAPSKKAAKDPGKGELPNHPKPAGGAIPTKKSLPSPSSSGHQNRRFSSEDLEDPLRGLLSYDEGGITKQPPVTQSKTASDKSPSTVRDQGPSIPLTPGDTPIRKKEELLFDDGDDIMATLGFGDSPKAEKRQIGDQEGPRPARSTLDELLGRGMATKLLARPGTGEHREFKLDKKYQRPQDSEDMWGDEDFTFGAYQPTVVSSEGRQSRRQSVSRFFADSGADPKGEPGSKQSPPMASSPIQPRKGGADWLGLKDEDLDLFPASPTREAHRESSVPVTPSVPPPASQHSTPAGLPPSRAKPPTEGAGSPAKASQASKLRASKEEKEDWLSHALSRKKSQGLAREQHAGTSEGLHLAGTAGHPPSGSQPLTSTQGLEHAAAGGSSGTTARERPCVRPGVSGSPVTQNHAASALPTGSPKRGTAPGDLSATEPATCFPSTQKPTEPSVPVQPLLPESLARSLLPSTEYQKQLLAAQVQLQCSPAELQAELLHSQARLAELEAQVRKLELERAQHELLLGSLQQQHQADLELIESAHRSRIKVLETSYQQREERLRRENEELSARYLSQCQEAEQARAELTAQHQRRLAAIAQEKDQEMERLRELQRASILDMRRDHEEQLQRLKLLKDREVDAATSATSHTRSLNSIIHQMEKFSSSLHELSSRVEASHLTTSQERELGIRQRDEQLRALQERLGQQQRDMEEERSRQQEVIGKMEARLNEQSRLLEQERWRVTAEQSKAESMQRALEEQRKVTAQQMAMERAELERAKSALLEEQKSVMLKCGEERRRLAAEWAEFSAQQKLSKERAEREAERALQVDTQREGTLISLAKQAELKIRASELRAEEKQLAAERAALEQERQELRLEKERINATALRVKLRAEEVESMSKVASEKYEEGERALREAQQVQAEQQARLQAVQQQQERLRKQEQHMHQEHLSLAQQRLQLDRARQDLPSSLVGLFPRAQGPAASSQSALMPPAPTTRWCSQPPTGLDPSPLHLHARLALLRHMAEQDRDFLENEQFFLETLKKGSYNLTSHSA
# [3] = biological target: ANKRD26 (recombinant, GST pull-down) (human) (UniProt Q9UPS8); experiment: pull-down; purified GST fusion protein immobilised on glutathione Sepharose beads, incubated with His fusion protein 4 h at 4 °C; 50 mM Tris-HCl pH 7.4, 150 mM NaCl, 1% Triton X-100, 1 mM dithiothreitol, 10% glycerol; western blot with anti-His antibody; both purified
# [4] = biological target: T2, FBF1 (recombinant, GST pull-down) (human) (UniProt Q8TES7); experiment: as above
# T2 sequence: T1 sequence
binding [1],binding [2],binding [3],binding [4],Substance
binds,binds,–,–,TALPID3 (co-immunoprecipitation) (from UniProt Q9BVV6 1-1533)
–,–,binds,binds,"TALPID3 (recombinant, GST pull-down) (from UniProt Q9BVV6 1-1533)"
–,–,–,binds,"ANKRD26 (recombinant, GST pull-down) (from UniProt Q9UPS8 1-1710)"
–,binds,–,–,ANKRD26 (co-immunoprecipitation) (from UniProt Q9UPS8 1-1710)
